In PubChem BioAssay AID1487 (National Center for Advancing Translational Sciences (NCATS), 2009) one finds AC50 data, which are given here for 35 compounds.

The other results are listed elsewhere or left out. The main result of the screen is listed elsewhere. These columns were measured beside it and carry no call. Most of these compounds were active or inconclusive in the main read-out, so they are no random draw. Potencies come from curve fits of mixed quality, noted in brackets.

This assay can be described thus: qHTS Assay for Modulators of Lamin A Splicing. The conditions noted are these: HeLa LMNA splicing GFP/RFP minigene ratio, 48 h. The procedure, abridged:
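Read-out is the ratio of GFP to DsRed2 object intensity, acquired by 488 nm laser-scanning cytometry on HeLa lamin A-EGFP minigene reporter cells. Compound incubation 48 hrs at 37 °C in Opti-MEM with 2% FBS; DMSO 0.5% final.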

Where [1] appears, read: measured here: GFP splicing reporter channel.
The mark [2] stands for this setting: measured here: RFP viability control channel.

As for `COc1ccccc1CN1CCC(CNC(=O)c2cnn(-c3ccc(C)c(C)c3)c2C2CCN(C(=O)OC(C)(C)C)CC2)CC1`, the AC50 (in general, the concentration at which the activity in the assay is half-maximal) is 17.8 µM [falling, partial curve, poor fit] under setting [1] and 11.2 µM [falling, partial curve, poor fit] under setting [2].

Take `O=C(c1ccccc1)c1ccc(-c2ccc(O)cc2)cc1`: under setting [2], the concentration at half-maximal activity (AC50) was 6.31 µM [rising, single point]. Still for that read-out and setting: in the case of `Cc1ccc(N2CCN(c3nc4c(S(=O)(=O)c5ccc(C)c(C)c5)nnn4c4ccccc34)CC2)c(C)c1` it was 0.02 µM [falling, full curve, poor fit]. Same read-out and setting: in the case of `Cc1cccc(OCC(=O)NC2CCCc3ccccc32)c1C` (stereo unspecified) it was 35.5 µM [rising, single point].

Turning to `CCC1CCCCN1C(=O)CSc1nnc(-c2ccc(Cl)s2)o1` (stereo unspecified), under setting [2], the AC50 was 31.6 µM [rising, single point]. Same read-out and setting: in the case of `CCOc1ccc(CN(C)CC(=O)Nc2cc(OC)c([N+](=O)[O-])cc2C)cc1` it was 1.12 µM [rising, partial curve, poor fit].

Turning to `CC(C)c1ccc2oc(=O)cc(CN3CCN(c4ccc(F)cc4)CC3)c2c1`, the AC50 was 20 µM [rising, single point] under setting [1] and 35.5 µM [rising, single point] under setting [2].

Turning to `Cc1oc(=O)c(NC(=O)c2ccc(Cl)cc2)cc1C(=O)c1ccccc1`, the AC50 runs as follows: under setting [1], 10 µM [falling, partial curve]; under setting [2], 5.62 µM [falling, single point].

Turning to `O=C(c1cc([N+](=O)[O-])ccc1Cl)N1CCN(c2ccc(F)cc2)CC1`, the AC50 under setting [2] is 35.5 µM [rising, single point]. Still for that read-out and setting: for `Cc1ccc(Nc2nc(N3CCOCC3)c3ccccc3n2)cc1` the value was 20 µM [rising, partial curve]. Still for that read-out and setting: for `Cc1cncn1CCc1nc2c3ccccc3nc(SCC(=O)Nc3ccccc3F)n2n1` the value was 35.5 µM [falling, single point]. Take `Cc1ccc(-c2nnc(Nc3cccc(C(F)(F)F)c3)c3ccccc23)cc1S(=O)(=O)N1CCOCC1`: the AC50 was 2.51 µM [rising, partial curve] under setting [1] and 1.41 µM [rising, partial curve] under setting [2]. Consider `O=S(=O)(c1ccc(NC(=S)N/N=C/c2ccc(N3CCOCC3)cc2)cc1)N1CCOCC1`, for which the AC50 is, setting by setting: under setting [1], 10 µM [rising, partial curve]; under setting [2], 11.2 µM [rising, partial curve].

`Cc1ccc(S(=O)(=O)Cn2nnnc2CN2CCCC3(CCCCC3)C2)cc1`: the AC50 under setting [2] is 15.8 µM [rising, partial curve]. On the same count and under the same terms, for `COc1cc(S(=O)(=O)Nc2cccc(C)c2)ccc1N=Cc1c(C)[nH]n(-c2ccccc2)c1=O` the value was 14.1 µM [rising, partial curve, poor fit]. `O=S1(=O)CCC(NC(=S)NC2CCS(=O)(=O)C2)C1` (stereo unspecified): the AC50 under setting [1] is 0.0224 µM [falling, full curve, poor fit].

In the case of `Cc1ccc(Nc2nc(N)nc(-c3oc4ccccc4c3C)n2)cc1`, the AC50 runs as follows: under setting [1], 7.94 µM [falling, partial curve]; under setting [2], 7.94 µM [falling, partial curve, poor fit]. Turning to `COC(=O)c1sc2cccc(F)c2c1S(=O)(=O)N1CCN(c2ccc(C)cc2C)CC1`, the AC50 under setting [2] was 0.00316 µM [falling, full curve, poor fit]. Still for that read-out and setting: for `COc1ccccc1NC(=O)Cn1cncc1-c1ccc([N+](=O)[O-])cc1` the value was 15.8 µM [falling, partial curve, poor fit]. For the compound `COc1ccc2[nH]c(=O)c(-c3noc(-c4ccccc4)n3)cc2c1`, the AC50 under setting [1] is 1.78 µM [rising, partial curve]. Take `OC(CNCc1ccc(-c2ccccc2)cc1)c1ccccc1` (stereo unspecified): the AC50 under setting [2] is 11.2 µM [rising, partial curve].

In the case of `CCn1c(=O)cc(SCC(=O)N2CCCCC2)c2ccccc21`, the concentration at half-maximal activity (AC50) under setting [2] is 3.98 µM [rising, full curve, poor fit].

Regarding `CCCNC(=O)CSc1nc2ccccc2c(=O)n1CCC`, under setting [1], the AC50 is 2.82 µM [falling, partial curve, poor fit]. As for `C=CCn1c(N)c(C(=O)Nc2ccc(C)c(C)c2)c2nc3ccccc3nc21`, the AC50 is, setting by setting: under setting [1], 1 µM [falling, single point]; under setting [2], 0.126 µM [falling, single point]. For the compound `CN(C)c1cc[n+](Cc2ccccc2)cc1`, the AC50 was 11.2 µM [rising, partial curve] under setting [1] and 14.1 µM [rising, partial curve] under setting [2]. For the compound `O=c1c(-c2ccc(O)cc2)coc2cc(O)ccc12`, the AC50 under setting [2] was 0.00501 µM [falling, full curve, poor fit]. Consider `Cc1ccc(C(=O)CC(=O)c2cccc(F)c2)c(O)c1`, for which the AC50 under setting [2] was 12.6 µM [rising, single point].

Regarding `O=C(CCCN1C(=O)/C(=C\c2cccs2)SC1=S)Nc1ccccn1`, the AC50 was 2.82 µM [falling, single point] under setting [1] and 2.82 µM [falling, partial curve, poor fit] under setting [2]. As to `CCOC(=O)N1CCN(C(=O)COc2cccc3c2CCN(Cc2ccccc2F)C3=O)CC1`, the AC50 under setting [1] was 11.2 µM [rising, partial curve, poor fit] and the AC50 under setting [2] was 31.6 µM [rising, single point]. Turning to `Cn1cc(Cl)c(C(=O)NNC(=S)Nc2cccc(Cl)c2)n1`, the half-maximal activity concentration (AC50) is 3.16 µM [falling, full curve, poor fit] under setting [1] and 3.55 µM [falling, partial curve, poor fit] under setting [2]. Take `O=[N+]([O-])c1cc(C(F)(F)F)ccc1NCCc1c[nH]c2ccc(O)cc12`: the AC50 under setting [2] was 12.6 µM [rising, single point]. Still for that read-out and setting: in the case of `CCOc1ccccc1N1CCN(CC(=O)Nc2cc(C)on2)CC1` it was 35.5 µM [rising, single point]. On the same count and under the same terms, for `O=[N+]([O-])c1cc(S(=O)(=O)Nc2ccccc2)ccc1NCc1cccnc1` the value was 14.1 µM [rising, partial curve, poor fit]; for `O=C(CCS(=O)(=O)c1ccccc1)Nc1nccs1`, 12.6 µM [rising, partial curve]; for `C=CCOc1cccc(C2C(C(=O)c3ccc(C)o3)=C(O)C(=O)N2c2nccs2)c1` (stereo unspecified), 12.6 µM [rising, single point].
